# Test results taken from PubChem BioAssay AID1487 (National Center for Advancing Translational Sciences (NCATS), 2009).
# About 25 (0.01%) of roughly 200,000 compounds were called active. Inconclusive means that the source gave no clear call. Such entries were picked first, then a sample of the others. Calls follow the shape of the dose curve; as a rule, active = well fitted inhibition curve with a large enough effect in the signal ratio, with a control signal flat (not every such curve was filed as active); inconclusive = small, poorly fitted or top-dose-only effect, or effect the other way, or a change in a side signal; inactive = flat fitted curve, though single readings scatter; the % refers to the signal ratio. Where the call is inconclusive, the potency comes from a doubtful curve fit.
# Assay: qHTS Assay for Modulators of Lamin A Splicing
# Conditions: HeLa LMNA splicing GFP/RFP minigene ratio, 48 h; ratio change, negative = inhibition: at 46.1 µM (top of the series) unless noted
# Outline: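 Read-out is the ratio of GFP to DsRed2 object intensity, acquired by 488 nm laser-scanning cytometry on HeLa lamin A-EGFP minigene reporter cells. Compound incubation 48 hrs at 37 °C in Opti-MEM with 2% FBS; DMSO 0.5% final.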
# % is scaled to controls: 0 for no effect and ±100 for the full control effect; potency is read from the fitted curve at half-maximal effect.
SMILES,"ratio change, negative = inhibition",Potency
COc1ccc(C(=O)C2CCN(C(=O)c3ccco3)CC2)cc1,inactive: 11.1%,
Cc1ccc(C2C(=O)N(C3CCCCCC3)CC(=O)N2CCC2=CCCCC2)cc1 (stereo not given),inconclusive: -17% [at 46 µM],
CCN(CC)S(=O)(=O)c1ccc(NC2c3ccccc3C(=O)N2CCN2CCOCC2)cc1 (stereo not given),inactive: -12.5%,
COc1ccc(/C=C2\CCCC3C2=NN(C(=O)CSc2ncn[nH]2)C3c2ccc(OC)cc2)cc1 (stereo not given),,"inconclusive: 17.8 µM [inhibitor, single point]"
COc1ccc(CCNC(=O)Cn2nc(-c3ccc(Cl)cc3)ccc2=O)cc1OC,inactive: -7.9% [at 46 µM],
Cc1ccc(CCNC(=O)c2ccc(CNS(=O)(=O)c3ccc(F)cc3)cc2)cc1,inconclusive: 5.68% [at 46 µM],
S=C(Nc1ccccc1Cl)N1CCOCC1,inconclusive: -7.34%,
Cc1c(C(=O)Nc2ccccc2Cl)oc2ccc(S(=O)(=O)N3CCCCCC3)cc12,inconclusive: 15% [at 46 µM],
COc1cccc2cc(C(=O)NCc3ccco3)c(=O)oc12,inactive: 14.6%,
CC(=O)c1c(C)[nH]c(C(=O)Nc2nc(C)cs2)c1C,inconclusive: -30.2% [at 46 µM],
CC(C)c1ccc(N(CC(=O)NCC2CCCO2)C(=O)Cn2nnc(-c3cccs3)n2)cc1 (stereo not given),inconclusive: -5.08% [at 46 µM],
CC1CCCC/C1=N\NS(=O)(=O)c1ccc(Br)cc1 (stereo not given),inactive: -1.69%,
CCOc1ccc(NC(=S)NCc2ccc3[nH]c(C)cc3c2)cc1,,"inconclusive: 0.0447 µM [rising, full curve, poor fit]"
O=C(COC(=O)c1cccc(C(=O)OCC(=O)NC2CC2)n1)NC1CC1,inactive: -7.74% [at 46 µM],
COc1ccccc1NS(=O)(=O)c1cc(NC(=S)NCCN2CCOCC2)ccc1N1CCOCC1,inactive: -10.2%,
Cc1ccc(N(C)C(=O)c2noc3c2CCCCC3)cc1C,inactive: -5.53% [at 46 µM],
COc1ccc(C(=O)Nc2ccc3c(c2)N(C)C(=O)c2ccccc2S3)cc1OC,inconclusive: -26.1% [at 46 µM],
CCCNC(=O)c1cc(-c2ccc(OC)cc2)n(CCCOC)c1C,inactive: -13.6%,
Cn1c(=O)c2c(nc(SCCN3CCOCC3)n2Cc2ccccc2Cl)n(C)c1=O,inconclusive: 3.17%,
CCCOc1ccccc1C(=O)Nc1nc2c(s1)CCCC2,inconclusive: -45% [at 46 µM],
COc1ccc(NC(=O)c2ccc3c(=O)n4nc(Nc5ccccc5C)sc4nc3c2)cc1,,"inconclusive: 35.5 µM [rising, single point]"
O=C(NCc1nnc(SCc2ccc(F)cc2)n1-c1ccc(F)cc1)C12CC3CC(CC(C3)C1)C2,inconclusive: -38%,
Cc1nc2ccccc2n1CC(=O)OCC(=O)NC1CC1,inactive: -6.74% [at 46 µM],
O=C(Nc1ccc(-c2ccc([N+](=O)[O-])cc2)cc1)c1ccccc1F,inconclusive: -37% [at 46 µM],
CC(C)CCCC(C)C1CCC2C3CC[C@H]4CC(=O)CC[C@@]4(C)C3CC[C@@]12C (stereo not given in full),inconclusive: -33.1%,
Cc1ccc(/C=C/c2onc(C)c2S(=O)(=O)N2CCC(C(=O)NCc3ccc(Cl)cc3)CC2)cc1,inactive: 11% [at 46 µM],
O=C(NNC(=S)NCc1ccccc1)c1ccc(Br)o1,inconclusive: 27.7% [at 46 µM],

SMILES,"ratio change, negative = inhibition",Potency
Cc1ccc(NS(=O)(=O)c2cccc(C(=O)NCCc3c[nH]c4ccccc34)c2)c(C)c1,inconclusive: -39%,
N=C1SCC(=O)N1c1ncc(Cc2ccc(F)cc2)s1,inconclusive: -41.6% [at 46 µM],
N[C@@H](CCCC(=O)O)C(=O)O,inconclusive: -8.95%,
O=C(COC(=O)c1ccccc1Nc1ccc(SC(F)F)cc1)NCc1ccco1,,"inconclusive: 8.91 µM [inhibitor, partial curve]"
CCN(c1ncnc2c1c(-c1ccccc1)cn2-c1ccccc1)C1CCCCC1,inactive: -22.2% [at 46 µM],
Nc1ccc(SCC(=O)Nc2cccc([N+](=O)[O-])c2)cc1,inactive: 21.1% [at 46 µM],
C=CCNC(=O)Nc1ccc(F)cc1F,inconclusive: -26.2% [at 46 µM],
CC(C)(C)c1ccc(/C=N/OCC(=O)NCc2ccc(F)cc2)cc1,,"inconclusive: 35.5 µM [fluorescent, single point]"
CCOc1ccccc1NS(=O)(=O)c1c(C(=O)OC)sc2cccc(F)c12,,"inconclusive: 22.4 µM [inhibitor, single point]"
O=C(Nc1ccc2c(c1)OCCO2)c1coc2ccccc2c1=O,inactive: -4.55%,
COc1cccc(-c2nc(SC(C(C)=O)C(=O)N(C)C)c3c(=O)n(C)c(=O)n(C)c3n2)c1 (stereo not given),inconclusive: 10% [at 46 µM],
Cc1ccc(S(=O)(=O)N2CCCc3cc(NC(=O)c4ccc(C(F)(F)F)cc4)ccc32)cc1,inactive: 4.32% [at 46 µM],
COCc1cc(=O)[nH]c(SCCS(=O)(=O)c2ccc(Cl)cc2Cl)n1,inconclusive: 161% [at 46 µM],
COc1ccccc1NC(=O)Cn1c(SCC(=O)NCc2ccccc2)nc2ccccc21,inconclusive: -2.61% [at 46 µM],
CCc1ccc(OCC2c3cc(OC)c(OC)cc3CCN2C(=O)Cc2ccc(OC)c(OC)c2)cc1 (stereo not given),inconclusive: -33.6% [at 46 µM],
NS(=O)(=O)c1ccc(CCNC(=O)CN2CCN(c3ccc(F)cc3)CC2)cc1,,"inconclusive: 35.5 µM [fluorescent, single point]"
CC1(O)c2ccccc2C(=O)N1Cc1ccccc1 (stereo not given),inconclusive: -0.249%,
Cc1ccc(NS(=O)(=O)c2ccc(NC(=O)C(C)Sc3ccc(Cl)cc3)cc2)c(C)c1 (stereo not given),,"inconclusive: 35.5 µM [inhibitor, single point]"
c1ccc(-c2nc(-c3ccco3)n3ccccc23)cc1,inactive: -4.02%,
CCCCOC(=O)c1ccc(NC(=O)c2cc(Cl)c(Cl)cc2C(=O)O)cc1,inconclusive: 2.6% [at 46 µM],
CCn1c(=O)cc(OCC(=O)Nc2ccc(OC)c(OC)c2)c2ccccc21,inconclusive: -17.3% [at 46 µM],
CCNC(=O)C1CN(S(=O)(=O)c2ccccc2)CCN1S(=O)(=O)c1ccccc1 (stereo not given),inactive: 8.63%,
O=C(Nc1ccc(Cl)cc1)c1cccc(N2C(=O)C3C4CCC(C4)C3C2=O)c1 (stereo not given),inconclusive: -41.9%,
O=C(c1ccc(CSc2ccccc2)cc1)N1CCN(c2ccccc2)CC1,,"inconclusive: 10 µM [inhibitor, single point]"
c1cncc(Nc2nc(-c3cccnc3)cs2)c1,inconclusive: 7.73%,
CCn1c(SCC(=O)Nc2sc3c(c2C#N)CCC(C(C)(C)C)C3)nnc1-c1ccco1 (stereo not given),inconclusive: -3.25%,
O=C(NCc1ccc(F)cc1)c1ccc(CSCc2cccc(Cl)c2)o1,inconclusive: -30.8% [at 46 µM],

# Sorted by heavy-atom count (falling): part of the list above
SMILES,"ratio change, negative = inhibition",Potency
Cc1ccc(S(=O)(=O)N2CCCc3cc(NC(=O)c4ccc(C(F)(F)F)cc4)ccc32)cc1,inactive: 4.32% [at 46 µM],
O=C(COC(=O)c1ccccc1Nc1ccc(SC(F)F)cc1)NCc1ccco1,,"inconclusive: 8.91 µM [inhibitor, partial curve]"
CC1(O)c2ccccc2C(=O)N1Cc1ccccc1 (stereo not given),inconclusive: -0.249%,

# Remaining list, next part.

SMILES,"ratio change, negative = inhibition",Potency
COc1ccc(-n2c(/C=C/c3ccccc3F)nc3cc(OC)c(OC)cc3c2=O)cc1Cl,inactive: -4.79% [at 46 µM],
COc1cccc(-c2cncnc2NCc2ccccc2)c1,inconclusive: -12.2%,
COC(=O)c1scc(-c2ccccc2)c1S(=O)(=O)Nc1ccccc1,inconclusive: 12.6% [at 46 µM],
Cc1nn(C(=O)c2cccc([N+](=O)[O-])c2C)c(C)c1S(=O)(=O)N1CCOCC1,inconclusive: -6.97% [at 46 µM],
O=C(c1ccc(C(F)(F)F)cc1)N1CCC(=O)N(C(COCc2ccccc2)Cc2ccccc2)CC1 (stereo not given),inconclusive: -30.1%,
Cc1ccc(Nc2nc3c([nH]2)c(=O)n(C)c(=O)n3C)cc1,inactive: -15%,
CC1(C)CC(=O)C=C(Nc2ccc(F)cc2F)C1,inactive: 5.62%,
CC(=O)Nc1ccc(Br)c2ccccc12,inconclusive: -13.4% [at 46 µM],
COc1cccc(NC(=O)CSC2=Nc3ccccc3C3=NC(CC(=O)NCCc4ccccc4)C(=O)N23)c1 (stereo not given),inactive: -8.29% [at 46 µM],
COc1ccc(OC)c(S(=O)(=O)N2CCC(c3ccncc3)CC2)c1,inconclusive: 15.6% [at 46 µM],
O=C(NC(Nc1ccccn1)C(Cl)(Cl)Cl)c1ccccc1 (stereo not given),,"inconclusive: 35.5 µM [inhibitor, single point]"
CCCC1CCC(c2ccc(C(=O)NN)cc2)CC1 (stereo not given),,"inconclusive: 35.5 µM [falling, single point]"
O=[N+]([O-])c1cccc(NC(=S)NCCc2ccccc2)c1,inconclusive: -32.4%,
CCOC(=O)c1c(N)n(-c2cccc(OC)c2)c2nc3ccccc3nc12,inconclusive: 8.7% [at 46 µM],
O=C(NCCNc1ccc(Cl)cc1[N+](=O)[O-])c1cccnc1,inconclusive: 26.4% [at 46 µM],
COc1ccc(C(=O)NCC(=O)OCC(=O)NCc2cccs2)cc1,inactive: 5.53% [at 46 µM],
Cc1oc2ncn(CC(C)C)c(=O)c2c1C(=O)N1CCN(c2cccc(C(F)(F)F)c2)CC1,inactive: -4.1% [at 46 µM],
Cc1cc(C)cc(N(C(=O)c2sc(C)nc2C)C(C(=O)NC(C)(C)C)c2ccncc2)c1 (stereo not given),inconclusive: 18.4% [at 9.22 µM],
COc1ccc(C(CC(=O)Nc2ccccc2OC)n2cccc2)cc1 (stereo not given),inconclusive: -39.7%,
COc1ccccc1CN=Cc1[nH]c2ccc(Br)c(Cl)c2c1O,inactive: -10.3%,
CC(C)Oc1ccc(C2CC(=O)N(c3ccc(C(=O)O)cc3)C2=O)cc1 (stereo not given),inconclusive: 16.2% [at 46 µM],
COc1ccc(NC(=S)NN(C)C(=S)Nc2ccc(OC)cc2)cc1,,"inconclusive: 12.6 µM [fluorescent, partial curve]"
C/C(=N\Nc1ccccc1Cl)c1ccc(-n2ccnc2)cc1,inconclusive: 22.4% [at 46 µM],
Cc1ccc2nc(/C(C#N)=C\c3ccc(Oc4ccc([N+](=O)[O-])cn4)cc3)[nH]c2c1,inconclusive: -12%,
CC(C)NCCCCOc1cccc(Br)c1,inactive: -10.4%,
COc1ccc(N(CC(=O)N/N=C/c2cc(Br)c(C)o2)S(=O)(=O)c2ccc(NC(C)=O)cc2)cc1,inconclusive: 9.23% [at 46 µM],
